According to the supplement of paper PMC10849652:
Some of the results follow.

Protein sequences, listed by entry. Tags and fused reporters are not part of them. Lines headed by an entry give the natural chain unless they say otherwise; changes in a name come on top.
UniProt Q02487, whole entry, looked up: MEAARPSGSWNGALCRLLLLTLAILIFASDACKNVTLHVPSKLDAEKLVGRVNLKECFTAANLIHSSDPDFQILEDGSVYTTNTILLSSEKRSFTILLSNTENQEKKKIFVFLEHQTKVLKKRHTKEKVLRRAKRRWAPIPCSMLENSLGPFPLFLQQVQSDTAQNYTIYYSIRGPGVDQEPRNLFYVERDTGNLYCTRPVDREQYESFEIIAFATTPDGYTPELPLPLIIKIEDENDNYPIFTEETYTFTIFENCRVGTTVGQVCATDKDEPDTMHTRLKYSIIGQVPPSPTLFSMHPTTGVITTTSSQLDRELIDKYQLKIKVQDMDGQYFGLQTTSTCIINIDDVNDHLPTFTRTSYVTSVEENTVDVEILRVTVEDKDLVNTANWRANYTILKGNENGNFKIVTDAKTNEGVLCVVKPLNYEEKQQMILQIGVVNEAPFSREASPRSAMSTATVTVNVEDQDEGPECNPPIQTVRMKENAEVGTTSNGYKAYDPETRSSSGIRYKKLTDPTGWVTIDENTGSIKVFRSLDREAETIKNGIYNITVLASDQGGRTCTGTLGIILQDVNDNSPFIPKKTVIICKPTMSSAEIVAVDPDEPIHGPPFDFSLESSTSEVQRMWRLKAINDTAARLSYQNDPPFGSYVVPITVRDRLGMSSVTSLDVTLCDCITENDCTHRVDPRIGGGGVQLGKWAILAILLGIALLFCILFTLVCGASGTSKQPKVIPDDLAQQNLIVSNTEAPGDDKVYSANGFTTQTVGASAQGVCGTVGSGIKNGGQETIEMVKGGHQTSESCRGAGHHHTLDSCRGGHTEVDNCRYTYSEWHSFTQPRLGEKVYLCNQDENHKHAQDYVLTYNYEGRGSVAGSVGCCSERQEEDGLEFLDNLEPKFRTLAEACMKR
UniProt O14576, whole entry, looked up: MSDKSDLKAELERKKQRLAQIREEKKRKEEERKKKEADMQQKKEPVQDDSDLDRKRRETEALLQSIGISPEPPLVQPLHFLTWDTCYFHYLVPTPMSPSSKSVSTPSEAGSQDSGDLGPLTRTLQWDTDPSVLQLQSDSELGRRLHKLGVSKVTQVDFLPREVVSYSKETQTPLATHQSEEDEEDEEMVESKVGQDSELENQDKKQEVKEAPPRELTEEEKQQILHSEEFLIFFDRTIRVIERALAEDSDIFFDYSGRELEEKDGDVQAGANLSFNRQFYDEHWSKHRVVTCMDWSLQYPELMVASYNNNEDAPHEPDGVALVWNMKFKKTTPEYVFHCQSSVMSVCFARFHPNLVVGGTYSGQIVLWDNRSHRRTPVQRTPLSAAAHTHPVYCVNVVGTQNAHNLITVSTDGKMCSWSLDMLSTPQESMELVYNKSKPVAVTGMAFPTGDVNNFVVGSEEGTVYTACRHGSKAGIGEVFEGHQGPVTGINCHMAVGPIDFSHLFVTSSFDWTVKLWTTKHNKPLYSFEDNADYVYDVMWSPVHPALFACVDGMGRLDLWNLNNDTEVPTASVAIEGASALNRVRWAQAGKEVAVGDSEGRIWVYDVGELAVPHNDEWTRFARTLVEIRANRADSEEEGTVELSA
UniProt Q86UW9: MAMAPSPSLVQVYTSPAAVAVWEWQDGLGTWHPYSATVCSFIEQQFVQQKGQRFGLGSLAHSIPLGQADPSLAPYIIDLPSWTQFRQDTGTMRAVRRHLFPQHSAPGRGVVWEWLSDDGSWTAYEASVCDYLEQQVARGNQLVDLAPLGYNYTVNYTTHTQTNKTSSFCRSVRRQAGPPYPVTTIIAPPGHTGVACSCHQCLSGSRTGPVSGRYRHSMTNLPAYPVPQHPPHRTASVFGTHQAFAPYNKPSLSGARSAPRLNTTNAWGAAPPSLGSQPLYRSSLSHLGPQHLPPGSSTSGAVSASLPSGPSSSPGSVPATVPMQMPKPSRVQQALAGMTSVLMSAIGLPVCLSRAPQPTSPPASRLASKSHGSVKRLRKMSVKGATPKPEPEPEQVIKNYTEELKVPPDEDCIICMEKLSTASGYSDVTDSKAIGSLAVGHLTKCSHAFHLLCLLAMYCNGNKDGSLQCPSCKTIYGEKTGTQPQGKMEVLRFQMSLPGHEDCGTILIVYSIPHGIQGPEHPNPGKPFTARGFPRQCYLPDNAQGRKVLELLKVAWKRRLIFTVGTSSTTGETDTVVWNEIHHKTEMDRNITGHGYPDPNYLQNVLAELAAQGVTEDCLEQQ
UniProt Q9C005, whole entry, looked up: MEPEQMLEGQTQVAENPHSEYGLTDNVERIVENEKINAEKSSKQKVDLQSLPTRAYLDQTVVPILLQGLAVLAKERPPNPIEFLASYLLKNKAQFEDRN
UniProt P32926: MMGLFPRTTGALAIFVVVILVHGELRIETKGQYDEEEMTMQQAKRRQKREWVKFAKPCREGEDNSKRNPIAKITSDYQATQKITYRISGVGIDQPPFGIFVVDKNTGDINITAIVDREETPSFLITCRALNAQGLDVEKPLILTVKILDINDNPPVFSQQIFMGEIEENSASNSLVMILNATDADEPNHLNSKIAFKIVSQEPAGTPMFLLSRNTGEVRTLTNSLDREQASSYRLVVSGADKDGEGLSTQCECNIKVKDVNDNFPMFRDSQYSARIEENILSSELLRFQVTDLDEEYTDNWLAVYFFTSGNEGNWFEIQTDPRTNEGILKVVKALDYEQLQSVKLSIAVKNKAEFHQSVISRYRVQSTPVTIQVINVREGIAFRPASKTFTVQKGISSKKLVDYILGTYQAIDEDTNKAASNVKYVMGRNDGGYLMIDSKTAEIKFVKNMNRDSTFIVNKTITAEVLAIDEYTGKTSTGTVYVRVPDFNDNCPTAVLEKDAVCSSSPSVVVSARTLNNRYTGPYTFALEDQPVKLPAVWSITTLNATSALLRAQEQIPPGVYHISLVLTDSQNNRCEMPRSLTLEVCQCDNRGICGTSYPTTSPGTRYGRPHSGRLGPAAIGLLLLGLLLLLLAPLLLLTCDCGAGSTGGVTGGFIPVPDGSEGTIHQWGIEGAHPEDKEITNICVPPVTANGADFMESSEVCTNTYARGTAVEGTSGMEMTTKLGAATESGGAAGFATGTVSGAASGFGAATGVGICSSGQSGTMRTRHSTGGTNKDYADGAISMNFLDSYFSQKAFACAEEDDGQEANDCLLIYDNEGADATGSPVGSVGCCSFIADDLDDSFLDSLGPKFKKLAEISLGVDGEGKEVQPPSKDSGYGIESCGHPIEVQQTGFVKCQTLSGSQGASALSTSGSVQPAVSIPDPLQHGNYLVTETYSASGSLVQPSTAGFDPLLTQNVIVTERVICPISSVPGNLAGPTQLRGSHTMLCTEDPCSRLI
UniProt Q7Z388: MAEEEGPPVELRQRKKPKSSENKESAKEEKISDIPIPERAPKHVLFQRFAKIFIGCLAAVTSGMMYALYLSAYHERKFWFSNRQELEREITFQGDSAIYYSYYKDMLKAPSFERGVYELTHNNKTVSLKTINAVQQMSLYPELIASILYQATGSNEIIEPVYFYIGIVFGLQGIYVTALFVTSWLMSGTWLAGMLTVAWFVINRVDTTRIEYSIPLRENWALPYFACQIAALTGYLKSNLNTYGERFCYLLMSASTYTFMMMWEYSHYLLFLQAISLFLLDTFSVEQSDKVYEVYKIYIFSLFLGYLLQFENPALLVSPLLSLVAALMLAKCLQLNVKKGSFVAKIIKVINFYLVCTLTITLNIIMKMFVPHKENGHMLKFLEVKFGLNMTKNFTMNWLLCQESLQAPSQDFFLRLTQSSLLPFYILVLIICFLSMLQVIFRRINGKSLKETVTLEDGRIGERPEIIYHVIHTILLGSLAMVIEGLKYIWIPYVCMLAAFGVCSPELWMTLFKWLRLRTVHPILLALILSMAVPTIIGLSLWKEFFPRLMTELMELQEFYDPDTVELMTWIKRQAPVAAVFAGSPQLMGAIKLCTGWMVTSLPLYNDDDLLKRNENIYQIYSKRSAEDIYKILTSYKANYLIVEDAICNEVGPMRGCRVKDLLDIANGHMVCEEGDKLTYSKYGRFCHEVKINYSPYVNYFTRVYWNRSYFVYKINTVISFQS
UniProt Q8TCX1: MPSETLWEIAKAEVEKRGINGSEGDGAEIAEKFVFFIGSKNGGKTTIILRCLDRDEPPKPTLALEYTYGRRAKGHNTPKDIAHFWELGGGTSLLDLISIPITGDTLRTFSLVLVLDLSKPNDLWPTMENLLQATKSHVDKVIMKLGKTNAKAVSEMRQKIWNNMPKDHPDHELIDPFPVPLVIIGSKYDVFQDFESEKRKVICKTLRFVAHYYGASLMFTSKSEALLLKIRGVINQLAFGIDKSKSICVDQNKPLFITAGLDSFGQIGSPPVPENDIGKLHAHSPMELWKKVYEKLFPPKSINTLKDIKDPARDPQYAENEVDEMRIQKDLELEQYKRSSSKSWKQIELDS
UniProt Q6UX65: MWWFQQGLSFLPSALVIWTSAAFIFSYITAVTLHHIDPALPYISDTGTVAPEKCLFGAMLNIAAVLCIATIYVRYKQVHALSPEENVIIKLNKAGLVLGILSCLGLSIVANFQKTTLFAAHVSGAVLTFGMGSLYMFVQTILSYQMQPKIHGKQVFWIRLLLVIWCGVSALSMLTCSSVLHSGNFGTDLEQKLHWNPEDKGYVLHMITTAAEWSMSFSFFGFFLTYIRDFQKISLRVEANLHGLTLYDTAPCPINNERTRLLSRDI
UniProt P51808: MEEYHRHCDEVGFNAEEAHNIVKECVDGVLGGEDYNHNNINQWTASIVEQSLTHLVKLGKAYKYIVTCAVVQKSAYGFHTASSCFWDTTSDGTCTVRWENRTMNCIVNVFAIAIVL
UniProt Q5VUJ9: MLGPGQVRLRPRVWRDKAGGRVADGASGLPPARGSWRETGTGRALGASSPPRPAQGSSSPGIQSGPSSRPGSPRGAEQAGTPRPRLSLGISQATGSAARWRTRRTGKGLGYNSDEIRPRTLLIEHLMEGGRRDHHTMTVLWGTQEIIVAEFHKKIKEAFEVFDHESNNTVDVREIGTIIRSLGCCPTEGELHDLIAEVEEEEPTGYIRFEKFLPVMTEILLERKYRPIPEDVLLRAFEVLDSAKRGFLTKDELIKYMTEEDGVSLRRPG
UniProt Q9P2X0: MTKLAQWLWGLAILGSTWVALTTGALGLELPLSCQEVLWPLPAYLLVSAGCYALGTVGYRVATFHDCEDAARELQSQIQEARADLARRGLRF
UniProt Q92784, whole entry, looked up: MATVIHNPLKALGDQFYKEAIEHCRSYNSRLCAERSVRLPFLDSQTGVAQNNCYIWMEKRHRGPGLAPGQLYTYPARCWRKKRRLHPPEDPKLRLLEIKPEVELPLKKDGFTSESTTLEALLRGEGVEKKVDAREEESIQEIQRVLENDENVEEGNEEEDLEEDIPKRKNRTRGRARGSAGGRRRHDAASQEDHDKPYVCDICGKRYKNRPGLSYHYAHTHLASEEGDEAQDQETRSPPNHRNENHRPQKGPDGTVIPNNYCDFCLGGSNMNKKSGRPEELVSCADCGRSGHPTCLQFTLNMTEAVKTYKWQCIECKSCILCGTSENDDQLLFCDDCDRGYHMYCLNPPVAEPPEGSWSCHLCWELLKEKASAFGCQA
UniProt Q9NZJ0: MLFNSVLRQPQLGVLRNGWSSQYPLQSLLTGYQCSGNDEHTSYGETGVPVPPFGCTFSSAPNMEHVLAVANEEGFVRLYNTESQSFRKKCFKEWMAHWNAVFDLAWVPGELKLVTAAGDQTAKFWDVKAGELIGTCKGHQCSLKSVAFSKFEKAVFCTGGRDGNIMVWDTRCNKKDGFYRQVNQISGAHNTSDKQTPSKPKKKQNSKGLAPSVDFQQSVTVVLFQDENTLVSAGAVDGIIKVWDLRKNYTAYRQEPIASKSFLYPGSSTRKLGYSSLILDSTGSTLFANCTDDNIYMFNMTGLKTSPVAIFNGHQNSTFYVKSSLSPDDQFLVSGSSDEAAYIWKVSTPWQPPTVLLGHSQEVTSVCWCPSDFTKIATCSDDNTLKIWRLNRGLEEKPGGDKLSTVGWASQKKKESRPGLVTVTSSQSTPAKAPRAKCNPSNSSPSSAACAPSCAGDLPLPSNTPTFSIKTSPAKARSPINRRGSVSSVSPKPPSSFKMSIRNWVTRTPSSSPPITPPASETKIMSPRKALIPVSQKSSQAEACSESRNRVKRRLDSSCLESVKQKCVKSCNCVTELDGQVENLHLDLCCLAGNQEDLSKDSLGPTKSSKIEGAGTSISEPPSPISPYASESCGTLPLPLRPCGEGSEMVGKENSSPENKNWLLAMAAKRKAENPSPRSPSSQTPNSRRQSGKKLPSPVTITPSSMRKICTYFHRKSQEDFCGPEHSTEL
UniProt Q92782, whole entry, looked up: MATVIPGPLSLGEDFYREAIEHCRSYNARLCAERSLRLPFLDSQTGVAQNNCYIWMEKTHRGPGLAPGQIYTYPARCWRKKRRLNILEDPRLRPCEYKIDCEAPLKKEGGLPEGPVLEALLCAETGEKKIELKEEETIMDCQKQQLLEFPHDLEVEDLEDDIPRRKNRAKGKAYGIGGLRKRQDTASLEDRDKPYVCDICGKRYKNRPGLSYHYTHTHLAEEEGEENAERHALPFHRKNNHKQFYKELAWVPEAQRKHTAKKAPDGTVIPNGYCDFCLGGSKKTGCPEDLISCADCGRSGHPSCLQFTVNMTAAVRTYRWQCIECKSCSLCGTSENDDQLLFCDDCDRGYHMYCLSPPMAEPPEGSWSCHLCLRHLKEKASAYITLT

Tests used:
Experiment in all cases: log2 fold change, soluble protein after heating vs DMSO (PISA); higher = thermal stabilisation; K562 lysate, 10 uM; active = over 0.2 and 3.5 SD of the protein, either way, in both replicates (recomputed)
[1] = compound: C=CC(=O)N1CCC[C@@H](n2nc(-c3ccc(Oc4ccccc4)cc3)c3c(N)ncnc32)C1 [ibrutinib]
Method in brief: (§1)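 Dounce homogenisation of K562 pellets in PBS pH 7.4 with 1 mM MgCl2 produced a crude extract, used at 1 mg/mL protein. Exposure to 10 μM compound lasted 30 min, and aliquots were then heated for 3 min across 48°C-58°C, pooled and brought to 0.5% NP-40 at 4°C. The supernatant after 21,000xg for 90 min was quantified by TMTpro 16plex LC-MS/MS with channel sums equalised. Duplicate values are given as log-two fold change in thermal stability relative to solvent controls.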

[2] = compound: CC(C)(C)Cn1c(N)nc2ccc(-c3[nH]c(C(C)(C)C)nc3-c3ccc(F)cc3)nc21 [ralimetinib]
Method in brief: as §1

[3] = compound: CC(C)(O)CC(=O)NCCn1ccc2ncnc(Nc3ccc(Oc4cccc(C(F)(F)F)c4)c(Cl)c3)c21
Method in brief: as §1

[4] = compound: CC(C)C1=C2N=C(C=C(N2N=C1)NCC3=CC=CC=C3)NCCCCCCN
Method in brief: as §1

[5] = compound: CC1=C(C=C(C=C1)NC(=O)C2=CC(=CC=C2)C(C)(C)C#N)NC3=CC4=C(C=C3)N=CN(C4=O)C
Method in brief: as §1

[6] = compound: CC1=C(C=C(C=C1)NC(=O)C2=CC(=CC=C2)N(C)C)NC(=O)C3=CC=C(C=C3)O
Method in brief: as §1

[7] = compound: CC(=O)c1cnc2ccc(-c3cc(Cl)c(O)c(Cl)c3)nc2c1N[C@H]1CC[C@H](CN(C)C)CC1
Method in brief: as §1

[8] = compound: CC1=C(C2=C(C=C1)C(=O)C3=CC=CC=C3N2CCCN)C
Method in brief: as §1

[9] = compound: CC1=CC=C(C=C1)SC2=C3C=C(SC3=CN=C2)C(=O)N
Method in brief: as §1

[10] = compound: CC1=C(C(CC(=O)N1)C2=CC=C(C=C2)C(F)(F)F)C(=O)NC3=C(C=C4C(=C3)C=NN4)F
Method in brief: as §1

Measured: log2 fold change

DYRK1A isoform 2 (UniProt Q13627)
inactive: [1] -0.063 | [2] 0.085 | [3] -0.241 | [4] 0.005 | [5] 0.004 | [6] -0.081

DYNC1I2 isoform 2 (UniProt Q13409)
inactive: [1] -0.101 | [7] -0.032 | [2] -0.04 | [3] -0.032 | [4] -0.017 | [8] 0.083 | [5] -0.019 | [6] -0.047 | [9] 0.012

DSC2 (UniProt Q02487)
inactive: [1] 0.065 | [2] -0.039 | [3] -0.185 | [4] -0.059 | [8] 0.081 | [5] -0.082 | [6] -0.068

ECM1 isoform 2 (UniProt Q16610)
inactive: [2] -0.244 | [3] 0.891 | [6] -0.129

DYNC1I1 (UniProt O14576)
inactive: [7] -0.006 | [4] 0.052 | [8] -0.071 | [9] 0.127

3 successive entries already listed, for reference:
DSC2 (UniProt Q02487)
inactive: [1] 0.065 | [2] -0.039 | [3] -0.185 | [4] -0.059 | [8] 0.081 | [5] -0.082 | [6] -0.068

ECM1 isoform 2 (UniProt Q16610)
inactive: [2] -0.244 | [3] 0.891 | [6] -0.129

DYNC1I1 (UniProt O14576)
inactive: [7] -0.006 | [4] 0.052 | [8] -0.071 | [9] 0.127

(further entries)

DSTYK (UniProt Q6XUX3)
inactive: [2] 0.093 | [3] 0.014 | [4] 0.124 | [10] 0.076 | [5] 0.015 | [6] 0.195

DTX2 (UniProt Q86UW9)
inactive: [1] 0.003 | [7] 0.063 | [4] 0.018 | [10] -0.018 | [8] -0.091 | [5] -0.06 | [9] 0.167

DSCAML1 (UniProt Q8TD84)
inactive: [1] 0.07 | [7] 0.053 | [2] 0.042 | [3] -0.067 | [10] -0.152 | [5] 0.052 | [6] 0.005 | [9] 0.093

EFCAB3 (UniProt Q8N7B9)
inactive: [7] 0.067 | [4] -0.154 | [5] -0.066 | [9] 0.072

EEF1D isoform 3 (UniProt P29692)
inactive: [1] 0.081 | [7] 0.051 | [4] 0.005 | [5] -0.073 | [9] 0.009

DYSF isoform 13 (UniProt O75923)
inactive: [1] 0.085 | [7] -0.099 | [2] -0.074 | [3] 0.104 | [4] 0.073 | [8] 0.038 | [5] -0.005 | [6] 0.047 | [9] -0.021

DPY30 (UniProt Q9C005)
inactive: [7] -0.08 | [2] 0.001 | [3] 0.058 | [4] -0.065 | [10] -0.089 | [8] -0.036 | [5] 0.063 | [6] 0.067 | [9] 0.084

DSG3 (UniProt P32926)
inactive: [1] -0.01 | [2] -0.063 | [3] -0.076 | [6] 0.022

EGLN2 (UniProt Q96KS0)
inactive: [2] -0.065 | [3] 0.055 | [5] -0.115 | [6] 0.162

EDEM2 (UniProt Q9BV94)
inactive: [7] -0.052 | [2] 0.086 | [3] -0.142 | [4] 0.052 | [10] 0.01 | [8] 0 | [5] -0.147 | [6] 0.004 | [9] -0.153

EEPD1 (UniProt Q7L9B9)
inactive: [5] -0.338

DPY19L4 (UniProt Q7Z388)
inactive: [1] 0.157 | [2] -0.165 | [3] -0.078 | [4] 0.139 | [10] 0.066 | [8] 0.029 | [5] 0.16 | [6] 0.072

DUSP19 (UniProt Q8WTR2)
inactive: [1] -0.051 | [7] 0.107 | [2] -0.008 | [3] -0.128 | [4] 0.069 | [10] 0.112 | [5] 0.035 | [6] 0.024 | [9] -0.219

DTX3L (UniProt Q8TDB6)
inactive: [1] 0.087 | [2] 0 | [3] -0.065 | [4] 0.043 | [8] 0.049 | [5] 0.015 | [6] 0.155

DYNC2LI1 (UniProt Q8TCX1)
inactive: [1] 0.069 | [2] -0.03 | [3] -0.022 | [10] 0.002 | [8] -0.068 | [5] 0.03 | [6] 0.03

DRAM2 (UniProt Q6UX65)
inactive: [1] 0 | [7] -0.019 | [10] 0.041 | [5] 0.018 | [9] 0.01

DYNLT3 (UniProt P51808)
inactive: [7] -0.225 | [4] 0.054 | [10] -0.006 | [5] -0.101 | [9] -0.196

EEF2KMT (UniProt Q96G04)
inactive: [2] -0.029 | [3] 0.057 | [4] 0.064 | [10] -0.054 | [8] -0.15 | [5] -0.082 | [6] -0.085

DPY19L3 (UniProt Q6ZPD9)
inactive: [1] -0.111 | [7] 0.012 | [4] -0.224 | [5] 0.047 | [9] -0.017

DUT (UniProt H0YMP1)
inactive: [1] 0.306 | [7] -0.071 | [9] 0.181

DUSP14 (UniProt O95147)
inactive: [7] -0.046 | [4] 0.158 | [8] -0.065 | [9] -0.056

EFCAB2 isoform 2 (UniProt Q5VUJ9)
inactive: [2] -0.004 | [3] 0.047 | [4] 0.009 | [10] 0.057 | [5] -0.057 | [6] -0.021

DPM3 isoform 2 (UniProt Q9P2X0)
inactive: [1] 0.014 | [7] 0.076 | [2] 0.008 | [3] -0.111 | [4] -0.056 | [10] -0.068 | [5] -0.125 | [6] 0.019 | [9] 0.105

EID1 (UniProt Q9Y6B2)
inactive: [2] -0.06 | [3] -0.042 | [4] -0.173 | [10] 0.05 | [8] -0.116 | [6] -0.008

DZIP3 (UniProt Q86Y13)
inactive: [4] 0.036

DRAP1 (UniProt E9PQX9)
inactive: [1] 0.114 | [7] -0.035 | [8] -0.047 | [9] -0.017

DST isoform 3 (UniProt Q03001)
inactive: [1] 0.005 | [4] -0.01

DPF3 isoform 3 (UniProt Q92784)
inactive: [1] -0.022 | [10] -0.137

DTL (UniProt Q9NZJ0)
inactive: [1] 0.012 | [2] 0.037 | [3] -0.024 | [4] -0.05 | [10] 0.041 | [8] -0.104 | [5] 0.071 | [6] -0.037

DPYSL3 isoform 2 (UniProt Q14195)
inactive: [5] 0.018

DTD2 (UniProt Q96FN9)
inactive: [1] -0.188 | [7] -0.099 | [2] 0.077 | [3] -0.225 | [4] -0.087 | [8] 0.038 | [5] -0.024 | [6] -0.033 | [9] 0.124

EFCAB7 (UniProt A8K855)
inactive: [2] -0.237 | [3] -0.059 | [6] 0.129

DPF1 isoform 2 (UniProt Q92782)
inactive: [1] -0.047 | [7] -0.018 | [2] 0.176 | [3] -0.059 | [4] -0.108 | [8] 0.077 | [5] -0.024 | [6] 0.04 | [9] 0.059
